{"source": "paper PMC5095074", "about": "(2016)", "key": {"[1]": {"target": "GST-E-cadherin-cytoplasmic domain (cd) (human) (UniProt P12830)", "test": "pull-down; 100 ng purified β-catenin with 0.5 μg purified GST or GST-E-cadherin-cd in PBS, 4°C 1.5 h; glutathione agarose beads, washed three times in PBS with 1% Triton; blot for β-catenin; both purified"}, "[2]": {"target": "GST-E-cadherin-cytoplasmic domain (cd) T790E (human) (UniProt P12830)", "test": "pull-down; 100 ng purified β-catenin with 0.5 μg purified GST or GST-E-cadherin-cd in PBS, 4°C 1.5 h; glutathione agarose beads, washed three times in PBS with 1% Triton; blot for β-catenin; both purified"}}, "note": "Results are given in words; binding and its absence hold for the method and conditions named. Some entries that bind do so weakly or less than the wild type.", "data": [{"substance": "Purified β-catenin (from UniProt P35222 1-781)", "values": [{"measurement": "binding", "setting": "[1]", "value": "binds"}, {"measurement": "binding", "setting": "[2]", "value": "binds"}]}]}
